# About 5,400 (1.8%) of roughly 300,000 compounds were called active. Inconclusive results, whose numbers are uncertain, are shown with a selection of clear calls. Calls come from the whole dose curve; tested in HEK293 cells. A potency beside an inconclusive call is a rough fit, not a confirmed value.
# Experiment: qHTS for inhibitors of binding or entry into cells for Marburg Virus
# Conditions: Marburg virus pseudotyped entry inhibition, cell reporter; activity change, negative = inhibition: at 37.8 µM (top of the series) unless noted
# % is set by controls: 0 for no effect and ±100 for the full control effect; potency is the fitted concentration of half-maximal effect.
Structure (SMILES),"activity change, negative = inhibition",Potency
O=[N+]([O-])c1c(NCCO)cc(N2CCCCC2)c2nonc12,inactive: -22.1% [at 46.1 µM],–
Cc1ccc(C(=O)NCC#N)cc1,inconclusive: 16.8% [activator] [at 46.1 µM],–
COc1ccccc1N=CC1=C(O)CC(c2ccccc2)CC1=O (stereo unspecified),–,"inconclusive: 7.08 µM [inhibitor, partial curve]"
Brc1ccc(CSc2ccc(-c3ccco3)nn2)cc1,–,"inconclusive: 15.8 µM [inhibitor, single point]"
CC(=O)Oc1ccc(N2C(=O)[C@@H]3[C@H](C2=O)[C@H]2c4ccccc4C=NN2[C@@H]3C(C)=O)cc1,–,"inconclusive: 0.447 µM [inhibitor, partial curve, poor fit]"
O=C(COc1ccccc1F)Nc1ccc(S(=O)(=O)Nc2nccs2)cc1,inactive: 4.76% [at 46.1 µM],–
O=C(c1cc(-c2ccccc2)nc2ccccc12)N1CCCC1,–,"inconclusive: 39.8 µM [inhibitor, partial curve, poor fit]"
COc1ccc(C2CC(c3ccccc3)=NN2c2ccccc2)c(C(=O)O)c1OC (stereo unspecified),inactive: -2.93% [at 46.1 µM],–
Cc1c(C(=O)Nc2ccc(N3CCOCC3)cc2)oc2ccccc12,–,"inconclusive: 4.11 µM [activator, partial curve, poor fit]"
COCC1CCN(C(=O)c2cc(COc3ccc(OC)c4ccccc34)on2)C1 (stereo unspecified),inactive: 14.9%,–
COc1ccc(-c2nc(C)ncc2-c2csc(C)n2)c(O)c1,inactive: 10.8%,–
O=C(CSc1nc2ccccc2s1)N/N=C/c1cc([N+](=O)[O-])ccc1O,inactive: -12.5% [at 46.1 µM],–
O=C(NCc1ccco1)C1CCN(C(=O)c2ccc([N+](=O)[O-])cc2)CC1,inactive: -16.3%,–
O=C(NCCSc1ccccn1)c1ccc(Cl)cc1,inactive: 9.45% [at 46.1 µM],–
COc1ccccc1NC(=S)NC(=O)Cc1ccccc1,inactive: 16.5% [at 46.1 µM],–
Cc1onc(-c2c(F)cccc2Cl)c1C(=O)Nc1sc2c(c1C#N)CCC(C(C)(C)C)C2 (stereo unspecified),–,"inconclusive: 29.1 µM [inhibitor, single point]"
CC(=O)OC(COc1ccccc1)Cn1cnc2cc(C)c(C)cc21 (stereo unspecified),–,"inconclusive: 31.6 µM [inhibitor, single point]"
CCCn1c(CCC(=O)Nc2cc(Cl)c(OC)cc2OC)nc2cccnc21,–,"inconclusive: 22.4 µM [inhibitor, single point]"
Cc1ccc(S(=O)(=O)NCCSc2nncn2C)cc1,–,"inconclusive: 31.6 µM [activator, single point]"
COc1ccccc1OCC(=O)Nc1ccccc1C(=O)NCc1cccnc1,–,"inconclusive: 15.8 µM [inhibitor, single point]"
O=C1C=C(NC2=CC3OC(c4ccccc4)OCC3OC2=O)CCC1 (stereo unspecified),–,"inconclusive: 10 µM [inhibitor, partial curve, poor fit]"
N#C/C(=C/c1cn(-c2ccccc2)nc1-c1cccc(S(=O)(=O)N2CCCC2)c1)C(=O)NCc1ccco1,inactive: -19.9%,–
O=C(COC(=O)CNC(=O)c1ccc(Cl)cc1Cl)NCC1CCCO1 (stereo unspecified),inactive: 3.77%,–
CC1CC1C(=O)Nc1nc(-c2ccccc2)cs1 (stereo unspecified),inactive: -22.3%,–

Structure (SMILES),"activity change, negative = inhibition",Potency
CCCn1c(NC(=O)C2CCN(S(=O)(=O)c3cccs3)CC2)nc2ccccc21,–,active: 12.6 µM
COc1ccccc1NC(=O)NCCCN1CCN(c2cccc(Cl)c2)CC1,–,"inconclusive: 29.1 µM [inhibitor, single point]"
Cc1cc(NC(=O)CSc2nc(Cc3ccccc3)c(C)[nH]2)no1,inactive: 21.2% [at 46.1 µM],–
CC(=O)c1c(N2CCN(c3ccccc3)CC2)nc(=S)n(-c2ccccc2)c1C,inactive: -25.8%,–
Cc1ccc(C(=O)Nc2ccccc2C(=O)Nc2ccccn2)cc1Cl,–,active: 12.6 µM
CCC/C(O)=C1\C(=O)CC(C)(C)CC1=Nc1ccc(OC)cc1,–,"inconclusive: 11.2 µM [inhibitor, partial curve, poor fit]"
COc1ccc(C2C(C(=O)N3CCN(c4ccc(OC)cc4)CC3)c3ccccc3C(=O)N2C)cc1 (stereo unspecified),–,"inconclusive: 10.3 µM [inhibitor, partial curve, poor fit]"
Cc1ccc(C)c(-c2cc(C(=O)Nc3sc(C)c(C)c3C(N)=O)c3ccccc3n2)c1,–,"inconclusive: 14.6 µM [inhibitor, partial curve, poor fit]"
Cc1ccc(NC(=O)N(CCC(=O)O)Cc2ccccc2)cc1,inactive: -15.6% [at 46.1 µM],–
O=C(Nc1ccnn1C1CCN(C(=O)c2ccc(F)c(Cl)c2)CC1)C1CC1,–,"inconclusive: 0.126 µM [inhibitor, full curve, poor fit]"
CN(C)CC(=O)N1CCc2ccccc2C1,inactive: 10.7% [at 46.1 µM],–
CCn1nnnc1NC(=O)c1cccc(OC)c1,–,"inconclusive: 0.562 µM [activator, full curve, poor fit]"
O=C(Nc1ccccc1N1CCOCC1)c1cc(F)cc(F)c1,inactive: 2.51% [at 46.1 µM],–
COc1ccc(/C(CC2OC(=O)c3ccccc32)=N\NC(N)=O)cc1 (stereo unspecified),inactive: 1.64% [at 46.1 µM],–
O=C(NNc1ccc([N+](=O)[O-])cc1[N+](=O)[O-])c1ccco1,–,"inconclusive: 25.1 µM [inhibitor, single point]"
CCCOc1ccc(NC(=O)CC2C(=O)N(C)C(=S)N2Cc2cccs2)cc1 (stereo unspecified),–,"inconclusive: 31.6 µM [inhibitor, partial curve, poor fit]"
CCOc1ccc(CCNC(=O)Cn2nc(CC)n3c(cc4sc(CC)cc43)c2=O)cc1OCC,inactive: 15.5% [at 46.1 µM],–
CC1CCCCN1C(=O)/C=C/c1ccccc1[N+](=O)[O-] (stereo unspecified),inactive: 3.03% [at 46.1 µM],–
CN1CCN(S(=O)(=O)c2ccc(N(C)Cc3ccc(OC(F)F)cc3)c([N+](=O)[O-])c2)CC1,–,"inconclusive: 35.5 µM [inhibitor, single point]"
COc1ccc(C(=O)Cn2c(=N)n(C)c3ccccc32)cc1,–,"inconclusive: 31.6 µM [inhibitor, single point]"
CCOc1cc2sc(N3CCC(C(=O)Nc4ccc(C)cc4)CC3)nc2cc1Br,–,"inconclusive: 2.24 µM [activator, full curve]"
CC(NC(=O)c1ccc2c(c1)N(Cc1ccc(Cl)cc1)C(=O)c1ccccc1S2(=O)=O)c1ccccc1 (stereo unspecified),–,"inconclusive: 17.8 µM [inhibitor, single point]"
O=C(CSc1n[nH]c(=O)n1Cc1ccccc1)Nc1ccc(F)c(F)c1F,–,"inconclusive: 12.6 µM [inhibitor, partial curve, poor fit]"
COC(=O)c1cccnc1NC(=S)NNC(=O)c1ccccc1,–,"inconclusive: 18.3 µM [activator, partial curve, poor fit]"

Structure (SMILES),"activity change, negative = inhibition",Potency
Cc1sc(NC(=O)c2ccco2)c(CN2CCN(c3ccc(F)cc3)CC2)c1C,–,"inconclusive: 3.66 µM [inhibitor, full curve, poor fit]"
Cc1cccc(C)c1OCC(=O)N/N=C/c1ccc2c(c1)OCO2,inactive: -14.5%,–
Cc1ccc(NC(=S)N(Cc2cccc(Br)c2)CC2CCC(C(=O)O)CC2)cc1Cl (stereo unspecified),–,"inconclusive: 4.47 µM [inhibitor, single point]"
COC(=O)c1c(N)n(Cc2ccc(OC)cc2)c2nc3ccccc3nc12,–,"inconclusive: 35.5 µM [inhibitor, single point]"
O=C(OCc1nc2ccccc2c(=O)[nH]1)c1cccs1,inactive: 8.04%,–
CN1CC(=O)N(CC(=O)N2N=C(c3ccc(Cl)cc3)CC2c2ccco2)C1=O (stereo unspecified),–,"inconclusive: 1 µM [inhibitor, single point]"
C=C(C)CN=CC1(C)CCC(C)=CO1 (stereo unspecified),–,"inconclusive: 35.5 µM [inhibitor, single point]"
Nc1cc([N+](=O)[O-])ccc1O,–,"inconclusive: 0.447 µM [activator, full curve, poor fit]"
CC(C)OC(=O)c1sc2nc(-c3ccccc3)ccc2c1N,–,"inconclusive: 6.51 µM [inhibitor, partial curve, poor fit]"
CCc1ccc(/C=C/C(=O)c2ccc(S(=O)(=O)N(C)C)cc2)cc1,–,"inconclusive: 3.16 µM [activator, full curve, poor fit]"
COc1ccc(CN(C)C(=O)C2CCN(C(=O)Nc3ccccc3)CC2)cc1,–,"inconclusive: 5.62 µM [inhibitor, single point]"
CC(C)(C)n1nnnc1C(c1ccccc1)N1CCc2ccccc2C1 (stereo unspecified),–,"inconclusive: 5.01 µM [inhibitor, full curve, poor fit]"
O=C(O)c1ccccc1/C=N/NC(=O)c1cc(-c2ccco2)nc2ccccc12,inactive: -0.525% [at 46.1 µM],–
O=C(O)Cc1ccc2ocnc2c1,inactive: -4.29%,–
CCCCN1CC(C)(C)Oc2cccc(F)c2S1(=O)=O,–,"inconclusive: 0.0035 µM [activator, full curve, poor fit]"
COc1cc(OC)cc(C(=O)N[C@H](C(=O)OCC(=O)Nc2ccc(C(N)=O)cc2)C(C)C)c1,–,"inconclusive: 2.82 µM [inhibitor, single point]"
Cc1cc(NC(=O)CSCC(=O)N(C)Cc2cccc(Cl)c2)no1,inactive: 4.95%,–
Cc1c(Cc2ccccc2)c(=O)[nH]c(=O)n1C,–,"inconclusive: 35.5 µM [inhibitor, single point]"
Cc1ccc(-n2c(C)cc(C(=O)Cn3nc(C(=O)O)c4ccccc4c3=O)c2C)cc1,–,"inconclusive: 17.8 µM [inhibitor, partial curve, poor fit]"
Cc1ccc(NC(=O)CCN2CCC(C)CC2)cc1,–,"inconclusive: 6.31 µM [inhibitor, single point]"
CCOc1ccc2[nH]c(=O)c(CN(Cc3ccc(F)cc3)C(=O)c3ccco3)cc2c1,–,"inconclusive: 35.5 µM [inhibitor, single point]"
N#C/C(=C\Nc1ccc2cn[nH]c2c1)c1nc(-c2ccc(Cl)cc2)cs1,–,"inconclusive: 17.8 µM [inhibitor, single point]"
CCCCCN(C(=O)CCC(=O)OCCOc1ccc(OCC)cc1)c1c(N)n(CCCC)c(=O)[nH]c1=O,–,"inconclusive: 35.5 µM [inhibitor, single point]"

# In the list so far, four have a cyano group:
Structure (SMILES),"activity change, negative = inhibition",Potency
Cc1ccc(C(=O)NCC#N)cc1,inconclusive: 16.8% [activator] [at 46.1 µM],–
Cc1onc(-c2c(F)cccc2Cl)c1C(=O)Nc1sc2c(c1C#N)CCC(C(C)(C)C)C2 (stereo unspecified),–,"inconclusive: 29.1 µM [inhibitor, single point]"
N#C/C(=C/c1cn(-c2ccccc2)nc1-c1cccc(S(=O)(=O)N2CCCC2)c1)C(=O)NCc1ccco1,inactive: -19.9%,–
N#C/C(=C\Nc1ccc2cn[nH]c2c1)c1nc(-c2ccc(Cl)cc2)cs1,–,"inconclusive: 17.8 µM [inhibitor, single point]"

# — PubChem BioAssay AID540276 (National Center for Advancing Translational Sciences (NCATS), 2011)
